From paper PMC11285139
No constants are given. Whether binding was seen depends on the method and setting. Binding seen in cells or lysates may run through a third protein. Some results given as binding are weak or reduced against the parent protein; the word gives no strength.

Sequences of proteins named here, by UniProt entry; tags and fusion partners are left off.
UniProt Q9DBC7: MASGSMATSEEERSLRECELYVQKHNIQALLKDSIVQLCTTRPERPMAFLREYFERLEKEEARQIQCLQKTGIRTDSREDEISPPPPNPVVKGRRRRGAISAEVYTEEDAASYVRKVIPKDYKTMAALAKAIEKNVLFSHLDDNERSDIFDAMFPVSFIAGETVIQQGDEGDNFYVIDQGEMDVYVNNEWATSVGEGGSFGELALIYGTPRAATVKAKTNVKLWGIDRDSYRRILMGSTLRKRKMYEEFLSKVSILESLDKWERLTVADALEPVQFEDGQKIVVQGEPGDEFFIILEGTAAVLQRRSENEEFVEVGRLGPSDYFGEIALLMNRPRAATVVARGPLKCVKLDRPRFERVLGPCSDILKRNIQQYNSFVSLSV

Molecular target: His-CRABP1 (UniProt P29762)
Assay: pull-down; His-CRABP1 (5 mM as printed) immobilised on Ni-NTA resin, incubated with 1000 ug pre-cleared P19 lysate overnight at 4 °C; 50 mM Tris pH 8.0, 150 mM NaCl, 0.2% NP-40, 20% glycerol, 50 mM imidazole; five washes with 20 mM imidazole; western blot; only the target purified

binding: binds
Substance: PKA RI-alpha (endogenous in P19 cells) (from UniProt Q9DBC7 1-381)
